This is a selection; strong and weak results do not stand in their true shares. For some assays here: At the low end of the ranking, values are background and their order means little.

Chains of the proteins cited; added tags and fusions are not shown. Lines headed by an entry give the natural chain unless they say otherwise; changes in a name come on top.
UniProt Q01892: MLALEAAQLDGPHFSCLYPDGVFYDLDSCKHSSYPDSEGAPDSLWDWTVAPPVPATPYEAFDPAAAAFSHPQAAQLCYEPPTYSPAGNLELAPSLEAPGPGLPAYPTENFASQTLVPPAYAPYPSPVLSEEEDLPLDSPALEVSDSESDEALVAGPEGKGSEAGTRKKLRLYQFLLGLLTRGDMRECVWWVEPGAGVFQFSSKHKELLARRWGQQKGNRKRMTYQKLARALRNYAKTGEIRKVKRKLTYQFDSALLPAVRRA
UniProt Q99607: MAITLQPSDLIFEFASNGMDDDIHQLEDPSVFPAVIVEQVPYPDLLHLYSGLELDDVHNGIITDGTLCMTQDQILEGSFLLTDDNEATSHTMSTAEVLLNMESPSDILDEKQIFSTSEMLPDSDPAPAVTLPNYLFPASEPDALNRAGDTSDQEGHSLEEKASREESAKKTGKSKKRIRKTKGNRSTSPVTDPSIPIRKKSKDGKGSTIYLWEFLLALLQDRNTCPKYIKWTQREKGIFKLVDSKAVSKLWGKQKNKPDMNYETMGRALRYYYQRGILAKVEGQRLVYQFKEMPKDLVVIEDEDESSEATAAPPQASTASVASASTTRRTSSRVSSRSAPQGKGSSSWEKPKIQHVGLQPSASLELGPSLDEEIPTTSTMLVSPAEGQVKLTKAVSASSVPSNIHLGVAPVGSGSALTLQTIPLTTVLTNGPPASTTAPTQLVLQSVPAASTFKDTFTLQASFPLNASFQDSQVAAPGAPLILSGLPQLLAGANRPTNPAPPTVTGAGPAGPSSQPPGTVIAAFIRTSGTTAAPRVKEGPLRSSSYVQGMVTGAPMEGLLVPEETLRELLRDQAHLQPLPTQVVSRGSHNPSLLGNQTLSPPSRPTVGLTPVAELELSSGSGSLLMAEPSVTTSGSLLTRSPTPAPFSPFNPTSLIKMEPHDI

For one assay, the target named is T1, FLI1 (UniProt Q01543).
T1 sequence: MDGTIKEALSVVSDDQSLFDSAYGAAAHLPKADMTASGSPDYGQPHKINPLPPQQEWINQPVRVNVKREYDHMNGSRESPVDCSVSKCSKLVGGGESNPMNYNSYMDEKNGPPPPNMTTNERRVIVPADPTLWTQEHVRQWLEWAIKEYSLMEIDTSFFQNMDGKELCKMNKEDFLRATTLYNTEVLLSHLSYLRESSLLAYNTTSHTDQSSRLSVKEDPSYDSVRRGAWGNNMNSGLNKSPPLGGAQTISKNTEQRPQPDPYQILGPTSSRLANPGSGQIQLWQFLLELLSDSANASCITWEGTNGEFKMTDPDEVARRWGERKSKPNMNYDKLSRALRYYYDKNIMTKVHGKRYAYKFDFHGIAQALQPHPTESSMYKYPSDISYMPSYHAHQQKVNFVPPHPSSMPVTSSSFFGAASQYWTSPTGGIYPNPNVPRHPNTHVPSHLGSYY
The assay is described as follows: DAPPL (digital affinity profiling via proximity ligation, sequencing). As to conditions: 10 mM Tris-HCl pH 7.5, 50 mM NaCl, 1 mM DTT, 4% glycerol, room temperature, 30 min; GST-TFs on glutathione beads, 16-mer random dsDNA library, 0.1% …; high values mean tight binding; double strand, one strand shown; scale: fold enrichment (6-mer frequency, TF over GST control).
With AAGCGG, the binding signal worked out at 1.13.

In turn, ACGCTA displayed a binding signal of 1.14.

As to TGCGAC, the binding signal came out at 1.2.

The sequence TACTAT yielded a binding signal of 1.5.

For ACCTTA, the binding signal turned out to be 1.34.

As to CTCCCC, the binding signal is 1.44.

On to CCCGAA, for which the binding signal came to 1.44.

CACCGA: the binding signal is 1.01.

In turn, CCACGA displayed a binding signal of 1.18.

As to TACAAC, the binding signal turned out to be 1.16.

As to TTTCTG, the binding signal stood at 1.4.

Turning to CTGGTC, the binding signal was determined as 1.11.

CATGAC had a binding signal of 1.23.

As for TCTGAA, the binding signal turned out to be 1.11.

With ATGAAC, the binding signal came out at 1.31.

For TATACG, the binding signal is 1.32.

With TCTCCA, the binding signal is 1.52.

The sequence CAAGAT showed a binding signal of 1.04.

AAAGTA yielded a binding signal of 1.14.

The target of the next assay is SPIB (UniProt Q01892). The assay is described as above. As to conditions: 10 mM Tris-HCl pH 7.5, 50 mM NaCl, 1 mM DTT, 4% glycerol, room temperature, 30 min; GST-TFs on glutathione beads, 16-mer random dsDNA library, 0.1% …; high values mean tight binding; double strand, one strand shown; scale: fold enrichment (6-mer frequency, TF over GST control).
The sequence AAGCGG showed a binding signal of 1.03.

The sequence ACGCTA returned a binding signal of 1.07.

As for TGCGAC, the binding signal amounted to 1.27.

On to TACTAT, for which the binding signal is 1.42.

For the sequence ACCTTA, the binding signal was found to be 1.21.

Sequence CTCCCC yielded a binding signal of 1.38.

Turning to CCCGAA, the binding signal is 1.27.

CACCGA registered a binding signal of 0.998.

Sequence CCACGA returned a binding signal of 1.06.

Turning to TACAAC, the binding signal came out at 1.18.

Regarding TTTCTG, the binding signal was determined as 1.3.

For CTGGTC, the binding signal amounted to 1.35.

On to CATGAC, for which the binding signal turned out to be 1.16.

In the case of TCTGAA, the binding signal was 1.26.

Take ATGAAC: the binding signal was found to be 1.27.

The sequence TATACG gave a binding signal of 1.35.

For the sequence TCTCCA, the binding signal worked out at 1.44.

The sequence CAAGAT gave a binding signal of 1.01.

AAAGTA came in with a binding signal of 1.18.

Another assay addresses ELF4 (UniProt Q99607). Described as above. As to conditions: 10 mM Tris-HCl pH 7.5, 50 mM NaCl, 1 mM DTT, 4% glycerol, room temperature, 30 min; GST-TFs on glutathione beads, 16-mer random dsDNA library, 0.1% …; high values mean tight binding; double strand, one strand shown; scale: fold enrichment (6-mer frequency, TF over GST control).
For the sequence ACAGGA, the binding signal came to 1.04.

For TAGGAA, the binding signal was determined as 1.09.

With CTTCCC, the binding signal is 1.95.

GTATCA: the binding signal was 1.05.

In the case of GTTTTG, the binding signal was 1.18.

ATTTCG registered a binding signal of 1.29.

Regarding GAACAA, the binding signal was determined as 1.2.

In the case of CTCCAG, the binding signal came to 1.21.

As for CTGCTG, the binding signal was 1.25.

Consider CATATC, for which the binding signal came to 1.29.

Consider AAAAAT, for which the binding signal is 1.38.

On to ATAACA, for which the binding signal came to 1.28.

Consider CATTTG, for which the binding signal worked out at 1.26.

For CCGACA, the binding signal was found to be 1.13.

In turn, ACCGCT had a binding signal of 1.14.

Sequence CCTTTT showed a binding signal of 1.64.

CGCCTA registered a binding signal of 1.12.

Regarding CGTACC, the binding signal is 1.17.

TTCCCG showed a binding signal of 1.73.

CTGGAA had a binding signal of 1.23.

In turn, TGCCTA gave a binding signal of 1.09.

The record behind these values is article PMC7862700.
